Measured data: PubChem BioAssay AID1259299 (Sanger Institute, 2017)
The deposit covers 794 reagents; below is a random part of them. 9 of all reagents (1.1%) were called active. 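Calls rest on knock-down alone; synergy scores play no part in calls, and no gene passed the synergy cut.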 Entries without a mark were called inactive. No viability above 1 is reported: the scale is capped. Not all columns of the deposit are shown. The record does not give: the amount of reagent, the time to read-out.

Screen: 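Essential genes and drug-synergistic partners among kinases and colorectal mutation genes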 (primary screen)
Cell system: human CAR1 colorectal cancer cells
Reagents: siRNA pool against human genes
Treatment: anchor drug BYL719 1 µM, cetuximab 5 µg/ml or trametinib 10 nM, or DMSO vehicle alone; exposure length not given
Read-out: 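Cell viability as fraction of non-targeting siRNA wells, mean of replicates, with robust z-score and a synergy score for each of three drugs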
Reading the numbers: viability robust z-score, knock-down alone and viability, knock-down alone (DMSO): higher = more viable cells
Rule for the call: 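a gene is called essential if its knock-down-alone viability z-score drops under -3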
Calls: active = essential (knock-down alone); inactive = no change

gene knocked down | viability robust z-score, knock-down alone | viability, knock-down alone (DMSO) (fraction of control)
AK4 | -1.41 | 0.797
DTYMK | 0.116 | 0.938
MAST1 | 0.789 | 1
PRKACA | 0.625 | 0.985
SMC1A | 0.667 | 0.989
TK2 | 0.439 | 0.968
PKM | -0.692 | 0.863
STK16 | 0.789 | 1
FGFR3 | 0.789 | 1
CDKL2 | 0.286 | 0.954
MAP3K2 | 0.789 | 1
TP53BP1 | 0.112 | 0.937
ITPKA | 0.457 | 0.969
ITPK1 | -1.5 | 0.789
PIK3R5 | 0.0377 | 0.931
STRADB | -1.01 | 0.834
PDXK | 0.789 | 1
ELP1 | 0.789 | 1
CALM3 | -0.796 | 0.854
MAGI1 | 0.363 | 0.961
MYLK4 | 0.789 | 1
PRPS1L1 | 0.789 | 1
PIM3 | -0.58 | 0.874
TP53 | -0.787 | 0.854
VRK3 | 0.789 | 1
MAST3 | -0.75 | 0.858
AK7 | -0.00184 | 0.927
MKNK1 | 0.717 | 0.993
STK10 | 0.789 | 1
MAP3K20 | 0.582 | 0.981
NADK | 0.174 | 0.943
MAP4K5 | -1.89 | 0.753
ETNK2 | -0.0738 | 0.92
MAPK13 | 0.789 | 1
GALK2 | -2.76 | 0.672
SNRK | -2.24 | 0.72
LMTK1 | 0.789 | 1
TAB1 | 0.789 | 1
PRKAA2 | 0.789 | 1
PKLR | 0.452 | 0.969
SOX9 | -0.271 | 0.902
IGF2R | 0.789 | 1
CIT | -0.901 | 0.844
PAK6 | 0.789 | 1
PDK2 | -1.6 | 0.78
APC | 0.789 | 1
NUAK2 | -0.994 | 0.835
TNIK | -0.506 | 0.88
TGFBR1 | -1.14 | 0.822
ADGRL2 | 0.789 | 1

Reformatted: entries from further up.
gene knocked down,"viability robust z-score, knock-down alone","viability, knock-down alone (DMSO) (fraction of control)"
FGFR3,0.789,1
CDKL2,0.286,0.954
MAP3K2,0.789,1
TP53BP1,0.112,0.937
ITPKA,0.457,0.969
ITPK1,-1.5,0.789
PIK3R5,0.0377,0.931
STRADB,-1.01,0.834
